Results are given in words; binding and its absence hold for the method and conditions named. In cells and extracts the contact can be indirect. Some binding calls cover weakened binding; strength is not graded here. For part of these data: Tags and fused reporters may be left off the sequences shown.
What was measured:
[1] = molecular target: T1, GST-LKB1 (UniProt Q15831); assay: pull-down; purified GST fusion protein on glutathione beads mixed with HA-tagged protein at 4 °C for 12 h; beads washed three times, detection by protein blotting; GST-only as control; only the target purified
T1 sequence: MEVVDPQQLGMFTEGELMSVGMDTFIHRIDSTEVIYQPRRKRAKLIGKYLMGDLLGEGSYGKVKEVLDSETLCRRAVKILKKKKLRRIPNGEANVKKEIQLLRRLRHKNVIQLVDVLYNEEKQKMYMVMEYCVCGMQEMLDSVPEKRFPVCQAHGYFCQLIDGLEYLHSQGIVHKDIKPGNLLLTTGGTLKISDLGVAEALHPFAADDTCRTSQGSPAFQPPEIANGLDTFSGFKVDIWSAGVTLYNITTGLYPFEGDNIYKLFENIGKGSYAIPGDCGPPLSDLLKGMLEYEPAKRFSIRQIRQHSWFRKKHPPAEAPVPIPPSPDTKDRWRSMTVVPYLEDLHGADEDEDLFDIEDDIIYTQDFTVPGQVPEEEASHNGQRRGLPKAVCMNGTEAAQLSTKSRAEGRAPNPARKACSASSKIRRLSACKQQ

[2] = molecular target: DENV-2 NS1 overexpressed in HUVEC (Dengue virus 2) (UniProt P14340); assay: co-IP; HUVEC (DENV-2 infected, or overexpressing NS1 or its Wing domain) lysed in RIPA buffer with protease inhibitors; 2 mg whole cell lysate precleared with protein G beads, 2 μg indicated antibody or isotype-matched IgG control, 2 h
[3] = molecular target: GST-NS1 (Dengue virus 2) (UniProt P14340); assay: pull-down; purified GST fusion protein on glutathione beads mixed with HA-tagged protein at 4 °C for 12 h; beads washed three times, detection by protein blotting; GST-only as control; only the target purified

HA-NS1 (from UniProt P14340 776-1127) was tested, and the binding [1] was “binds”.

B1: LKB1 (endogenous, HUVEC) (protein, UniProt Q15831-1 1-433)
chain: MEVVDPQQLGMFTEGELMSVGMDTFIHRIDSTEVIYQPRRKRAKLIGKYLMGDLLGEGSYGKVKEVLDSETLCRRAVKILKKKKLRRIPNGEANVKKEIQLLRRLRHKNVIQLVDVLYNEEKQKMYMVMEYCVCGMQEMLDSVPEKRFPVCQAHGYFCQLIDGLEYLHSQGIVHKDIKPGNLLLTTGGTLKISDLGVAEALHPFAADDTCRTSQGSPAFQPPEIANGLDTFSGFKVDIWSAGVTLYNITTGLYPFEGDNIYKLFENIGKGSYAIPGDCGPPLSDLLKGMLEYEPAKRFSIRQIRQHSWFRKKHPPAEAPVPIPPSPDTKDRWRSMTVVPYLEDLHGADEDEDLFDIEDDIIYTQDFTVPGQVPEEEASHNGQRRGLPKAVCMNGTEAAQLSTKSRAEGRAPNPARKACSASSKIRRLSACKQQ
For B1, the binding [2] was “binds”.

B2: HA-LKB1 (protein, UniProt Q15831-1 1-433)
chain: MEVVDPQQLGMFTEGELMSVGMDTFIHRIDSTEVIYQPRRKRAKLIGKYLMGDLLGEGSYGKVKEVLDSETLCRRAVKILKKKKLRRIPNGEANVKKEIQLLRRLRHKNVIQLVDVLYNEEKQKMYMVMEYCVCGMQEMLDSVPEKRFPVCQAHGYFCQLIDGLEYLHSQGIVHKDIKPGNLLLTTGGTLKISDLGVAEALHPFAADDTCRTSQGSPAFQPPEIANGLDTFSGFKVDIWSAGVTLYNITTGLYPFEGDNIYKLFENIGKGSYAIPGDCGPPLSDLLKGMLEYEPAKRFSIRQIRQHSWFRKKHPPAEAPVPIPPSPDTKDRWRSMTVVPYLEDLHGADEDEDLFDIEDDIIYTQDFTVPGQVPEEEASHNGQRRGLPKAVCMNGTEAAQLSTKSRAEGRAPNPARKACSASSKIRRLSACKQQ
B2 was tested, and the binding [3] was “binds”.
